Source: PubChem BioAssay AID1259254 (NCATS, 2017)
Screen: 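Gene knock-downs that lead to re-replication, shown by excess G2 DNA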 (primary screen). Cell system: human HCT116 colorectal cancer cells. Reagents: single siRNA against human genes. Time to read-out: 3 days. Read-out: 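Nuclei stained with Hoechst and imaged; cell-cycle phase assigned by DNA content; G2 share scaled per plate, non-targeting siRNA 0%, GMNN siRNA 100%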. Scale: G2 robust z-score and G2 cells, % of GMNN control: higher = more G2 cells, more excess DNA replication. Call rule: 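Active siRNAs have a G2 robust z of 5 or more median absolute deviations over the median, which in these data means about 38% or higher of GMNN control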.
Here is an unselected part of about 59,000 reagents. About 1,550 of all reagents (2.6%) were called active. 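G2 share is only a proxy for re-replication; each gene was hit by three separate siRNAs, and active genes were retested.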 Entries without a mark were called inactive. The numbers tell different reagents against one gene apart. Further read-outs or replicates are left out here. Reagent sequences are not shown. Not stated in the record: the amount of reagent.

SLC15A3 (GeneID 51296) #1
- G2 robust z-score: -0.848
- G2 cells, % of GMNN control: -3

SLC15A3 (GeneID 51296) #2
- G2 robust z-score: -0.992
- G2 cells, % of GMNN control: -4.01

SLC15A3 (GeneID 51296) #3
- G2 robust z-score: 2.5
- G2 cells, % of GMNN control: 20.6

ACRP1 (GeneID 645529) #1
- G2 robust z-score: 1.16
- G2 cells, % of GMNN control: 11.1

ACRP1 (GeneID 645529) #2
- G2 robust z-score: 1.72
- G2 cells, % of GMNN control: 15.1

ACRP1 (GeneID 645529) #3
- G2 robust z-score: -0.521
- G2 cells, % of GMNN control: -0.701

PSPH (GeneID 5723) #1
- G2 robust z-score: 0.178
- G2 cells, % of GMNN control: 4.22

PSPH (GeneID 5723) #2
- G2 robust z-score: 1.82
- G2 cells, % of GMNN control: 15.8

PSPH (GeneID 5723) #3
- G2 robust z-score: 0.0748
- G2 cells, % of GMNN control: 3.49

PGRMC2 (GeneID 10424) #1
- G2 robust z-score: 0.327
- G2 cells, % of GMNN control: 5.27

PGRMC2 (GeneID 10424) #2
- G2 robust z-score: -0.649
- G2 cells, % of GMNN control: -1.6

PGRMC2 (GeneID 10424) #3
- G2 robust z-score: 0.599
- G2 cells, % of GMNN control: 7.18

TULP1 (GeneID 7287) #1
- G2 robust z-score: -0.69
- G2 cells, % of GMNN control: -1.89

TULP1 (GeneID 7287) #2
- G2 robust z-score: -0.5
- G2 cells, % of GMNN control: -0.551

TULP1 (GeneID 7287) #3
- G2 robust z-score: 1.05
- G2 cells, % of GMNN control: 10.3

Next part, starting with the last 3 of the part before.
TULP1 (GeneID 7287) #1
- G2 robust z-score: -0.69
- G2 cells, % of GMNN control: -1.89

TULP1 (GeneID 7287) #2
- G2 robust z-score: -0.5
- G2 cells, % of GMNN control: -0.551

TULP1 (GeneID 7287) #3
- G2 robust z-score: 1.05
- G2 cells, % of GMNN control: 10.3

OR51B5 (GeneID 282763) #1
- G2 robust z-score: 0.913
- G2 cells, % of GMNN control: 9.39

OR51B5 (GeneID 282763) #2
- G2 robust z-score: 3.4
- G2 cells, % of GMNN control: 26.9

OR51B5 (GeneID 282763) #3
- G2 robust z-score: -0.559
- G2 cells, % of GMNN control: -0.968

PAX3 (GeneID 5077) #1
- G2 robust z-score: -1.09
- G2 cells, % of GMNN control: -4.73

PAX3 (GeneID 5077) #2
- G2 robust z-score: -0.54
- G2 cells, % of GMNN control: -0.831

PAX3 (GeneID 5077) #3
- G2 robust z-score: -1.05
- G2 cells, % of GMNN control: -4.44

C9orf85 (GeneID 138241) #1
- G2 robust z-score: 2.08
- G2 cells, % of GMNN control: 17.6

C9orf85 (GeneID 138241) #2
- G2 robust z-score: 0.726
- G2 cells, % of GMNN control: 8.07

C9orf85 (GeneID 138241) #3
- G2 robust z-score: -0.685
- G2 cells, % of GMNN control: -1.85
